# According to article PMC6995195:
# Chains of the proteins cited; added tags and fusions are not shown.
# UniProt P19474: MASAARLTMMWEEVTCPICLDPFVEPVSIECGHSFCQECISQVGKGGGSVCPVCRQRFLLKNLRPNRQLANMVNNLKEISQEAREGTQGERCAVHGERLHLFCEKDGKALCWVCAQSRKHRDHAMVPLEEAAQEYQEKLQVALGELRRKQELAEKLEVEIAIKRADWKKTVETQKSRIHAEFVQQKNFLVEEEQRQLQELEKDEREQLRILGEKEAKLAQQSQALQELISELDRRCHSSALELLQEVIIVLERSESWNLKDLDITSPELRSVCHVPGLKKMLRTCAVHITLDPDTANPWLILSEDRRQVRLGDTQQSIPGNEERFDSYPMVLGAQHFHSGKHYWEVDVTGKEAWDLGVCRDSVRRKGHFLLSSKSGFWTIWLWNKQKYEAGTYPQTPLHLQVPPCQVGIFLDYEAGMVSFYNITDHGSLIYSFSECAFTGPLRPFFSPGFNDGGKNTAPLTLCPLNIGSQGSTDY
# B1: SERPINB5 (serpin family B member 5), endogenous (protein, UniProt P36952 1-375)
# chain: MDALQLANSAFAVDLFKQLCEKEPLGNVLFSPICLSTSLSLAQVGAKGDTANEIGQVLHFENVKDVPFGFQTVTSDVNKLSSFYSLKLIKRLYVDKSLNLSTEFISSTKRPYAKELETVDFKDKLEETKGQINNSIKDLTDGHFENILADNSVNDQTKILVVNAAYFVGKWMKKFSESETKECPFRVNKTDTKPVQMMNMEATFCMGNIDSINCKIIELPFQNKHLSMFILLPKDVEDESTGLEKIEKQLNSESLSQWTNPSTMANAKVKLSIPKFKVEKMIDPKACLENLGLKHIFSEDTSDFSGMSETKGVALSNVIHKVCLEITEDGGDSIEVPGARILQHKDELNADHPFIYIIRHNKTRNIIFFGKFCSP
# Biological target: TRIM21–MYC (tripartite motif–containing 21, MYC-tagged) (UniProt P19474)
# Experiment: affinity purification with mass spectrometry; HONE1 cells with TRIM21 (TRIM21–MYC) ectopic expression, immunoprecipitation, MS analysis; enriched protein obtained by comparing with the IgG group
binder,measurement,value
B1,binding,binds

# No constants are given. Whether binding was seen depends on the method and setting. Binding seen in cells or lysates may run through a third protein. A yes stands for co-enrichment or nearness to the bait. Other partners may have been found.
